Test results: patent publication US20230201217A1 (priority 2019, published 2023)
“And” between values parts separate entries of the source, which are not always exact repeats. Identical values can stand only once. At least one structure is not confirmed: it was looked up by name or label, or the drawing left a doubt.

Test system: male Sprague Dawley rats
Test: Modified Irwin test, definitive GLP study, male rats
Assay type: in vivo, rat
Method: Only male rats were utilized in the assay, as no significant sex-specific effects have been noted in prior toxicology studies.
The dose volume for all groups was 20 mL/kg. Observations for the Irwin test were performed pre-dose (on the day of dosing) and at approximately (±5 minutes) 30, 90, 150, and 240 minutes post-dosing. Body temperature was measured and recorded during each Irwin observation period.

With COCCC1CC2CN3CCc4c([nH]c5ccccc45)C(C(=O)OC)(C2)C13.Cl (centres unmarked) [18-MC HCl, 18-Methoxycoronaridine hydrochloride] the “Irwin: Decreased locomotor activity, occurrence(s)/No. of males (observation period, min)” value (200 mg/kg) was 1/6 (90), the “Irwin: Passivity, occurrence(s)/No. of males (observation period, min)” value (200 mg/kg) was 1/6 (30, 90, 150, 240) and the “Irwin: Decreased cutaneous blood flow, occurrence(s)/No. of males (observation period, min)” value (400 mg/kg) was 1/6 (30, 90, 150). For the same compound, the “Irwin: Decreased locomotor activity, occurrence(s)/No. of males (observation period, min)” value (400 mg/kg) was 2/6 (90, 150), the “Irwin: Slower respiration rate, occurrence(s)/No. of males (observation period, min)” value (400 mg/kg) was 1/6 (90, 150, 240) and the “Irwin: Decreased locomotor activity, occurrence(s)/No. of males (observation period, min)” value (600 mg/kg) was 2/6 (30, 90, 150, 240). For the same compound, the “Irwin: Slower respiration rate, occurrence(s)/No. of males (observation period, min)” value (600 mg/kg) was 1/6 (90, 150) and the “Irwin: Decreased alertness, occurrence(s)/No. of males (observation period, min)” value (600 mg/kg, hydrochloride) was 1/6 (150, 240) and 2/6 (30, 90).
